From the supplement of paper PMC4604168 (melanoma cell lines)
The other results are listed elsewhere or left out. Repeats are few or missing, and single values can be far off.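 Imaging used 1,536-well plates; nuclei positive for cleaved PARP by antibody were divided by total DNA-stained nuclei to yield the apoptosis fraction. Doses for screening kept most cells viable, and cell lines differ markedly in resting and induced cleaved-PARP levels.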

These compounds were tested on A375 (assay: cleaved PARP positive nuclei fraction relative to DMSO control; melanoma cells; higher = more apoptosis). Conditions: library dose: low library concentration; 72 h.

| Compound | cleaved PARP positive nuclei fraction [%] |
| --- | --- |
| N.N.[Cl][Pt][Cl] [cisplatin] + O=C(O)[C@@H]1[O][Sb](=[O])([O][Sb]2(=[O])[O][C@H]([C@H](O)CO)[C@H](O)[C@H](C(=O)O)[O]2)[O][C@H]([C@H](O)CO)[C@@H]1O [stibogluconate] (first compound 1.6 µM, partner dose 2 µM) | 139 |
| Cc1cn(-c2cc(NC(=O)c3ccc(C)c(Nc4nccc(-c5cccnc5)n4)c3)cc(C(F)(F)F)c2)cn1 [nilotinib] + C[C@]12O[C@H](C[C@]1(O)CO)n1c3ccccc3c3c4c(c5c6ccccc6n2c5c31)CNC4=O [Lestaurtinib] (first compound 0.2 µM, partner dose 0.004 µM) | 233 |
| CO[C@H]1C[C@@H]2CC[C@@H](C)[C@@](O)(O2)C(=O)C(=O)N2CCCC[C@H]2C(=O)O[C@H]([C@H](C)C[C@@H]2CC[C@@H](OCCO)[C@H](OC)C2)CC(=O)[C@H](C)/C=C(\C)[C@@H](O)[C@@H](OC)C(=O)[C@H](C)C[C@H](C)/C=C/C=C/C=C/1C [everolimus] + C[As](C)SC[C@H](NC(=O)CC[C@H](N)C(=O)O)C(=O)NCC(=O)O [Darinaparsin] (first compound 0.02 µM, partner dose 0.4 µM) | 733 |
| Cn1cc(C2=C(c3cn(C4CCN(Cc5ccccn5)CC4)c4ccccc34)C(=O)NC2=O)c2ccccc21 [Enzastaurin] + C#Cc1cccc(Nc2ncnc3cc(OCCOC)c(OCCOC)cc23)c1 [erlotinib] (first compound 0.8 µM, partner dose 0.8 µM) | 167 |
| C[C@]12O[C@H](C[C@]1(O)CO)n1c3ccccc3c3c4c(c5c6ccccc6n2c5c31)CNC4=O [Lestaurtinib] + CC(=O)O[C@@]12CO[C@@H]1C[C@H](O)[C@@]1(C)C(=O)[C@H](O)C3=C(C)[C@@H](OC(=O)[C@H](O)[C@@H](NC(=O)OC(C)(C)C)c4ccccc4)C[C@@](O)([C@@H](OC(=O)c4ccccc4)[C@H]21)C3(C)C [Docetaxel] (first compound 0.004 µM, partner dose 0.0001 µM) | 619 |
| C[C@]12O[C@H](C[C@]1(O)CO)n1c3ccccc3c3c4c(c5c6ccccc6n2c5c31)CNC4=O [Lestaurtinib] + CS(=O)(=O)c1ccc(C(=O)Nc2ccc(Cl)c(-c3ccccn3)c2)c(Cl)c1 [vismodegib] (first compound 0.004 µM, partner dose 1 µM) | 77.3 |
| N.N.[Cl][Pt][Cl] [cisplatin] + C=CCNC1=C2C[C@@H](C)C[C@H](OC)[C@H](O)[C@@H](C)/C=C(\C)[C@H](OC(N)=O)[C@@H](OC)/C=C\C=C(/C)C(=O)NC(=CC1=O)C2=O [Tanespimycin] (first compound 1.6 µM, partner dose 0.002 µM) | 120 |
| O=C(/C=C/c1cccnc1)NCCCCC1CCN(C(=O)c2ccccc2)CC1 + C[C@]12O[C@H](C[C@]1(O)CO)n1c3ccccc3c3c4c(c5c6ccccc6n2c5c31)CNC4=O [Lestaurtinib] (first compound 0.01 µM, partner dose 0.004 µM) | 117 |
| N.N.[Cl][Pt][Cl] [cisplatin] + OCc1c[nH]c2ccccc12 [Indole-3-carbinol] (first compound 1.6 µM, partner dose 0.8 µM) | 119 |
| Cn1cc(C2=C(c3cn(C4CCN(Cc5ccccn5)CC4)c4ccccc34)C(=O)NC2=O)c2ccccc21 [Enzastaurin] + CO[C@H]1C[C@@H]2CC[C@@H](C)[C@@](O)(O2)C(=O)C(=O)N2CCCC[C@H]2C(=O)O[C@H]([C@H](C)C[C@@H]2CC[C@@H](OCCO)[C@H](OC)C2)CC(=O)[C@H](C)/C=C(\C)[C@@H](O)[C@@H](OC)C(=O)[C@H](C)C[C@H](C)/C=C/C=C/C=C/1C [everolimus] (first compound 0.8 µM, partner dose 0.02 µM) | 281 |
| O=C(/C=C/c1cccnc1)NCCCCC1CCN(C(=O)c2ccccc2)CC1 + C[As](C)SC[C@H](NC(=O)CC[C@H](N)C(=O)O)C(=O)NCC(=O)O [Darinaparsin] (first compound 0.01 µM, partner dose 0.4 µM) | 42.4 |

Exported tab-delimited: part of the list above.
Compound	cleaved PARP positive nuclei fraction [%]
N.N.[Cl][Pt][Cl] [cisplatin] + O=C(O)[C@@H]1[O][Sb](=[O])([O][Sb]2(=[O])[O][C@H]([C@H](O)CO)[C@H](O)[C@H](C(=O)O)[O]2)[O][C@H]([C@H](O)CO)[C@@H]1O [stibogluconate] (first compound 1.6 µM, partner dose 2 µM)	139
Cc1cn(-c2cc(NC(=O)c3ccc(C)c(Nc4nccc(-c5cccnc5)n4)c3)cc(C(F)(F)F)c2)cn1 [nilotinib] + C[C@]12O[C@H](C[C@]1(O)CO)n1c3ccccc3c3c4c(c5c6ccccc6n2c5c31)CNC4=O [Lestaurtinib] (first compound 0.2 µM, partner dose 0.004 µM)	233
